Source: paper PMC9912918
These are yes or no findings as the source states them, for the method shown.

What was measured:
[1] = biological target: Arabidopsis thaliana alkaline α-galactosidase AtAkαGal3, wild type (Arabidopsis thaliana) (UniProt Q8RX87); experiment: SEC; S200 column equilibrated with 20 mM Tris-HCl pH 8.2, 1 mM DTT, 1 mM galactose; elution at 80-100 kDa against ~82 kDa on SDS-PAGE; both purified
[2] = biological target: AtAkαGal3 D383A mutant (Arabidopsis thaliana) (UniProt Q8RX87); experiment: as above

| binding [1] | binding [2] | Binder |
| --- | --- | --- |
| no binding |  | Arabidopsis thaliana alkaline α-galactosidase AtAkαGal3, wild type (enzyme, UniProt Q8RX87 1-749) MTIKPAVRISDGNLIIKNRTILTGVPDNVITTSASEAGPVEGVFVGAVFNKEESKHIVPIGTLRNSRFMSCFRFKLWWMAQRMGEMGRDIPYETQFLLVESNDGSHLESDGANGVECNQKVYTVFLPLIEGSFRSCLQGNVNDEVELCLESGDVDTKRSSFTHSLYIHAGTDPFQTITDAIRTVKLHLNSFRQRHEKKLPGIVDYFGWCTWDAFYQEVTQEGVEAGLKSLAAGGTPPKFVIIDDGWQSVERDATVEAGDEKKESPIFRLTGIKENEKFKKKDDPNVGIKNIVKIAKEKHGLKYVYVWHAITGYWGGVRPGEEYGSVMKYPNMSKGVVENDPTWKTDVMTLQGLGLVSPKKVYKFYNELHSYLADAGVDGVKVDVQCVLETLGGGLGGRVELTRQFHQALDSSVAKNFPDNGCIACMSHNTDALYCSKQAAVIRASDDFYPRDPVSHTIHIASVAYNSVFLGEFMQPDWDMFHSVHPAAEYHASARAISGGPLYVSDSPGKHNFELLRKLVLPDGSILRARLPGRPTRDCLFADPARDGVSLLKIWNMNKYTGVLGVYNCQGAAWSSTERKNIFHQTKTDSLTGSIRGRDVHSISEASTDPTTWNGDCAVYSQSRGELIVMPYNVSLPVSLKIREHEIFTVSPISHLVDGVSFAPIGLVNMYNSGGAIEGLRYEAEKMKVVMEVKGCGKFGSYSSVKPKRCVVESNEIAFEYDSSSGLVTFELDKMPIENKRFHLIQVEL |
|  | no binding | AtAkαGal3 D383A mutant (enzyme, UniProt Q8RX87 1-749) MTIKPAVRISDGNLIIKNRTILTGVPDNVITTSASEAGPVEGVFVGAVFNKEESKHIVPIGTLRNSRFMSCFRFKLWWMAQRMGEMGRDIPYETQFLLVESNDGSHLESDGANGVECNQKVYTVFLPLIEGSFRSCLQGNVNDEVELCLESGDVDTKRSSFTHSLYIHAGTDPFQTITDAIRTVKLHLNSFRQRHEKKLPGIVDYFGWCTWDAFYQEVTQEGVEAGLKSLAAGGTPPKFVIIDDGWQSVERDATVEAGDEKKESPIFRLTGIKENEKFKKKDDPNVGIKNIVKIAKEKHGLKYVYVWHAITGYWGGVRPGEEYGSVMKYPNMSKGVVENDPTWKTDVMTLQGLGLVSPKKVYKFYNELHSYLADAGVDGVKVAVQCVLETLGGGLGGRVELTRQFHQALDSSVAKNFPDNGCIACMSHNTDALYCSKQAAVIRASDDFYPRDPVSHTIHIASVAYNSVFLGEFMQPDWDMFHSVHPAAEYHASARAISGGPLYVSDSPGKHNFELLRKLVLPDGSILRARLPGRPTRDCLFADPARDGVSLLKIWNMNKYTGVLGVYNCQGAAWSSTERKNIFHQTKTDSLTGSIRGRDVHSISEASTDPTTWNGDCAVYSQSRGELIVMPYNVSLPVSLKIREHEIFTVSPISHLVDGVSFAPIGLVNMYNSGGAIEGLRYEAEKMKVVMEVKGCGKFGSYSSVKPKRCVVESNEIAFEYDSSSGLVTFELDKMPIENKRFHLIQVEL |
